{"source": "patent US8414878B2", "about": "“Irilis biopreparation based on bacillus-strain bacteria, bacillus subtilis and bacillus licheniformis contained therein” (priority 2005, dated 2013)", "tested_on": "B. subtilis VKPMB-8611", "experiment": "Sensitivity to antibiotics, delay zones of culture growth", "format": "cell-based, Bacillus subtilis", "conditions": "strain B. subtilis VKPMB-8611", "note": "For at least one compound, name, drawing or mass did not settle the structure."}
{"smiles": "CO[C@@]1(NC(=O)C(C(=O)O)c2ccc(O)cc2)C(=O)N2C(C(=O)O)=C(CSc3nnnn3C)CO[C@@H]21", "note": "(stereo partly shown) [Mocsalactam]", "values": [{"measurement": "Diameter of delay zones of cultures growth", "value": "I ± 0.2 mm"}]}
